Test results: PubChem BioAssay AID493014 (National Center for Advancing Translational Sciences (NCATS), 2011)
Some of the results follow. Further columns of the screen follow, without active or inactive calls. Compounds called inactive in the main read-out are mostly missing here. Potencies come from curve fits of mixed quality, noted in brackets.

Assay: qHTS Assay to Find Inhibitors of Chronic Active B-Cell Receptor Signaling
Conditions: ABC-DLBCL IkBa-CBG/CBR reporter, luminescence ratio (green luciferase fused to IkBa over red control in TMD8 lymphoma cells), 4 h
How it was run: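 TMD8 human ABC-DLBCL cells with doxycycline-inducible IκBα–green luciferase fusion and unfused red luciferase, in 0.5% FBS medium; compounds up to 46 uM, 4 h at 37C. Green/red luminescence ratio, filter-overlap corrected, fitted to concentration-response curves.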

[1] = measured here: CBR red luminescence, cell number
[2] = measured here: IkBa-CBG green luminescence

SMILES: CC1(C)Cc2c(sc3[nH]c(=S)[nH]c(=O)c23)CO1
- AC50 [1]: 22.4 µM [falling, partial curve]

SMILES: Cc1ccc(C(=O)OCc2nnc(-c3ccccc3)o2)o1
- AC50 [1]: 3.26 µM [rising, partial curve, poor fit]

SMILES: S=C(NN=C(C1CC1)C1CC1)Nc1ccccc1
- AC50 [1]: 23.1 µM [falling, single point]

SMILES: O=C(NNC(=S)Nc1ccc(Cl)cc1)c1ccccc1
- AC50 [1]: 10 µM [falling, partial curve]

SMILES: O=C(Nc1ccccc1)OC1CCCCc2cccnc21 (configuration not stated)
- AC50 [1]: 1.41 µM [rising, partial curve]

SMILES: Cc1cc(NC(=O)CSc2nc3cc(C)c(C)cc3cc2C)no1
- AC50 [1]: 4.47 µM [rising, single point]

SMILES: CC(=O)Nc1ccc(Nc2nc(C)nc3c2oc2ccccc23)cc1
- AC50 [1]: 16.4 µM [rising, single point]

SMILES: N#CC(c1ccc(F)cc1)c1ccc(C(=O)c2ccccc2)cc1 (configuration not stated)
- AC50 [1]: 0.0291 µM [rising, full curve, poor fit]

SMILES: COc1ccc(C(=O)NNC(=O)c2cc3cccc(OC)c3oc2=O)cc1
- AC50 [1]: 2.24 µM [falling, full curve, poor fit]

SMILES: Cc1cc(Nc2cccc(Cl)c2)nc(-c2ccccc2O)n1
- AC50 [1]: 35.5 µM [falling, single point]

SMILES: CCc1ccc(C(C(=O)NC2CCCCC2)N(C(=O)c2csnn2)C2CC2)cc1 (configuration not stated)
- AC50 [1]: 2.51 µM [rising, partial curve, poor fit]

SMILES: Oc1ccc(C=Nc2ccc3ncccc3c2)c(O)c1
- AC50 [1]: 2 µM [falling, full curve, poor fit]
- AC50 [2]: 15.8 µM [falling, single point]

SMILES: NC(=O)c1cccc2c3c([nH]c12)CCCC3
- AC50 [1]: 5.62 µM [rising, partial curve]

SMILES: O=C(O)c1cc(N/N=C/c2cccs2)ccc1Cl
- AC50 [1]: 2 µM [falling, full curve, poor fit]

SMILES: COc1ccc(NC(=O)CC2CCCCC2)cc1OC
- AC50 [1]: 1.58 µM [rising, partial curve, poor fit]

SMILES: CCn1c(SCc2ccc(C(=O)Nc3nccs3)cc2)nnc1-c1ccc(NC(C)=O)cc1
- AC50 [1]: 0.316 µM [falling, full curve]

SMILES: N#CC1(C#N)C2=C(CCCC2)NC(c2ccccc2)C1(C#N)C#N (configuration not stated)
- AC50 [1]: 12.6 µM [falling, partial curve, poor fit]

SMILES: O=C(NC1CCCCC1)C(c1ccco1)N(CCc1ccccc1)C(=O)C(F)(F)F (configuration not stated)
- AC50 [1]: 23.1 µM [falling, single point]

SMILES: Cc1cc(C(=O)CN2C(=O)C(=O)N(CC(C)C)C2=O)c(C)n1-c1ccccc1F
- AC50 [1]: 0.708 µM [falling, partial curve, poor fit]

SMILES: NC1(C#Cc2ccc3c(=O)c4ccccc4sc3c2)CCCCC1
- AC50 [1]: 25.9 µM [falling, partial curve, poor fit]

SMILES: O=C(COc1ccc(Cl)cc1)NCCC1=CCCCC1
- AC50 [1]: 12.6 µM [rising, partial curve, poor fit]

SMILES: COc1ccc(C)cc1NC(=O)c1nnn(Cc2cccc(F)c2)c1N
- AC50 [1]: 18.4 µM [rising, single point]

SMILES: COc1cc(/C=N/NC(=O)c2ccc(=O)[nH]n2)ccc1O
- AC50 [1]: 29.1 µM [falling, single point]

SMILES: Cc1c(NC(=O)c2cc(S(=O)(=O)N3CCCCC3)ccc2Cl)c(=O)n(-c2ccccc2)n1C
- AC50 [1]: 6.51 µM [rising, partial curve, poor fit]

SMILES: O=c1[nH]c2cc3c(cc2cc1CN(Cc1cccnc1)C(=S)NCc1ccco1)OCCO3
- AC50 [1]: 6.31 µM [falling, partial curve, poor fit]

SMILES: COc1ccccc1-c1nc(C(N)=O)c2[nH]c(=O)n(-c3cccc(C)c3)c2n1
- AC50 [1]: 35.5 µM [falling, single point]

SMILES: O=C(O)c1ccc(N/N=C/c2ccnc3ccccc23)cc1
- AC50 [1]: 0.00447 µM [falling, full curve, poor fit]

SMILES: COC(=O)c1cc(NS(=O)(=O)c2ccc3c(c2)CCC(=O)N3)cc(C(=O)OC)c1
- AC50 [1]: 10.3 µM [rising, partial curve, poor fit]

SMILES: CCn1c(/C=C/c2ccccc2Cl)nc2ccccc2c1=O
- AC50 [1]: 35.5 µM [falling, single point]

SMILES: COc1cccc(OC)c1OCCN1CCN(C(c2ccccc2)c2ccccc2)CC1
- AC50 [1]: 35.5 µM [falling, single point]

SMILES: CCN1CCN(CCOCCOc2ccccc2)CC1
- AC50 [1]: 0.447 µM [rising, full curve, poor fit]

SMILES: CSc1ccccc1NC(=O)Nc1ccc(Cl)cc1
- AC50 [1]: 9.2 µM [falling, partial curve, poor fit]

SMILES: CN(C)c1ccc(/C=C/c2nc3ccccc3s2)cc1
- AC50 [1]: 0.355 µM [falling, full curve, poor fit]

SMILES: COc1ccc(C(=O)Oc2ccc(C(C)=O)cc2)c(OC)c1
- AC50 [1]: 1.26 µM [rising, full curve, poor fit]

SMILES: O=C(c1cccc(F)c1)N1CCc2ccccc21
- AC50 [1]: 29.1 µM [rising, single point]

SMILES: CCc1cc(=O)oc2cc(OCC=C(C)C)ccc12
- AC50 [1]: 11.2 µM [rising, partial curve, poor fit]

SMILES: O=C([O-])c1ccccc1-[n+]1c(-c2ccccc2)cc(-c2ccccc2)cc1-c1ccccc1
- AC50 [1]: 5.8 µM [rising, single point]

SMILES: Brc1ccc(-c2csc(/N=C/N3CCOCC3)n2)cc1
- AC50 [1]: 1.64 µM [rising, full curve]

SMILES: Cc1cccc(CC(C)NC(=O)c2oc3c(F)cccc3c2C)n1 (configuration not stated)
- AC50 [1]: 7.94 µM [falling, partial curve, poor fit]

SMILES: CC(C)C[C@@H](CO)N1CCN(Cc2ccc(O)cc2)CCC1=O
- AC50 [1]: 3.55 µM [rising, full curve, poor fit]

SMILES: CC1(C)C=Cc2c(c3c(c4c(=O)c(-c5ccc(O)cc5)coc24)OC(C)(C)CC3)O1
- AC50 [1]: 1.12 µM [falling, full curve]

SMILES: Fc1ccc(-n2ncc3c(NCCCn4ccnc4)ncnc32)cc1
- AC50 [1]: 5.62 µM [falling, full curve]

SMILES: COc1cc(-c2cc(C(=O)N3CCCCCC3)c3ccccc3n2)cc(OC)c1OC
- AC50 [1]: 16.4 µM [falling, partial curve]

SMILES: O=C(/C=C/c1cccc([N+](=O)[O-])c1)NC(=S)Nc1ccccc1C(=O)O
- AC50 [1]: 11.2 µM [falling, partial curve]
- AC50 [2]: 22.4 µM [rising, partial curve, poor fit]

SMILES: CCn1c(C)nc2cc(C(=O)N=Nc3c(O)[nH]c4c(C)cc(C)cc34)ccc21
- AC50 [1]: 13 µM [rising, partial curve, poor fit]
- AC50 [2]: 0.58 µM [falling, partial curve, poor fit]

SMILES: O=C(N1CCOCC1)C1(c2ccc(Cl)cc2)CCCC1
- AC50 [1]: 29.1 µM [rising, single point]

SMILES: Cc1ccc(-n2c(N)c(C(=O)NCc3cccnc3)sc2=S)cc1
- AC50 [1]: 35.5 µM [rising, single point]

SMILES: O=c1cc(C(F)(F)F)[nH]c2ccc(C(F)(F)F)cc12
- AC50 [1]: 5.01 µM [falling, full curve]

SMILES: N#CCc1cc2ccc3cccc4ccc(c1)c2c34
- AC50 [1]: 35.5 µM [rising, partial curve, poor fit]

SMILES: O=C(OCCCCN1C(=O)c2ccccc2C1=O)c1n[nH]c2ccccc12
- AC50 [1]: 11.6 µM [falling, partial curve, poor fit]

SMILES: O=C(COC(=O)c1ccc(S(=O)(=O)N2CCCC2)cc1)Nc1cccc(Br)c1
- AC50 [1]: 0.731 µM [rising, full curve, poor fit]

SMILES: CCC(C(=O)OCC(=O)N1CCN(S(=O)(=O)c2ccc(C)cc2C)CC1)c1ccccc1 (configuration not stated)
- AC50 [1]: 18.4 µM [falling, single point]

SMILES: O=C(Nc1cc(S(=O)(=O)N2CCOCC2)ccc1O)c1ccc(S(=O)(=O)N2CCCCC2)cc1
- AC50 [1]: 16.4 µM [rising, partial curve, poor fit]

SMILES: CCn1c(NCc2cc(Cl)ccc2O)nc2ccccc21
- AC50 [1]: 22.4 µM [falling, single point]

SMILES: COc1ccccc1C(=O)NC(=O)COC(=O)Cc1ccccc1[N+](=O)[O-]
- AC50 [1]: 5.8 µM [rising, full curve, poor fit]

SMILES: CC(=O)N1c2ccccc2C(=O)OC1c1cccnc1 (configuration not stated)
- AC50 [1]: 5.62 µM [rising, single point]

SMILES: CNc1nc(Sc2ccc(C)cc2)cc(C(F)(F)F)n1
- AC50 [1]: 10 µM [rising, single point]

SMILES: CN(C)CCCNc1oc(-c2ccccc2Cl)nc1S(=O)(=O)c1ccc(F)cc1
- AC50 [1]: 12.6 µM [falling, single point]

SMILES: CCN1CCN(c2nnc(-c3ccc(C)cc3)c3ccccc23)CC1
- AC50 [1]: 35.5 µM [falling, single point]

SMILES: CCOc1cc(C(=O)NCc2ccc3c(c2)CCN3C(=O)c2ccc(F)cc2)cc(OCC)c1OCC
- AC50 [1]: 0.631 µM [rising, full curve, poor fit]

SMILES: Nc1ccc(C(=O)C(=O)c2ccc(N)cc2)cc1
- AC50 [1]: 12.6 µM [falling, partial curve, poor fit]

SMILES: COc1ccc(OC)c(N/C(=N\c2nc(C)cc(C)n2)NC(=O)c2ccco2)c1
- AC50 [1]: 29.1 µM [falling, single point]

SMILES: O=C(O)CSc1ncnc2c1sc1nc(-c3ccccc3)c3c(c12)CCC3
- AC50 [1]: 0.562 µM [falling, full curve]

SMILES: Nc1c(C(=O)NCCN2CCOCC2)c2nc3ccccc3nc2n1CCc1ccccc1F
- AC50 [1]: 0.103 µM [rising, full curve, poor fit]
